Assay results from the supplement of paper PMC3334620.
Over roughly 33,000 sequences, “E-score (-0.5 to 0.5)” has its median near -0.0059; the highest 2% begin near 0.26. Some of the results follow.

The sequences below were run against T1, Cin5 (UniProt P40917) (assay: PBM E-score (8-mer binding enrichment) (E-score (-0.5 to 0.5)); higher = stronger / more preferred TF binding). Settings: protein concentration: 100 nM; construct: GST-full length.
T1 sequence: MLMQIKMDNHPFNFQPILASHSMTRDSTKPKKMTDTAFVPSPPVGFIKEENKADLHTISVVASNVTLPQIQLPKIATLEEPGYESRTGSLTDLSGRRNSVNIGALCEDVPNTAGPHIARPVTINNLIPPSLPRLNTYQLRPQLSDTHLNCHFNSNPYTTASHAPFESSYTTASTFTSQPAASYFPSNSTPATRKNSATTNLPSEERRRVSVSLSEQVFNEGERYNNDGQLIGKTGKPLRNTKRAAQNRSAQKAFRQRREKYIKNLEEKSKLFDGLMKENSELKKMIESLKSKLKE
In short: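 GST-tagged yeast TFs (full-length or DNA-binding domain) were made by PURExpress in vitro transcription/translation and applied at about 100-200 nM to universal all-10-mer Agilent arrays. The arrays were made double-stranded by primer extension, on fresh or once-stripped slides. Bound protein was detected with fluorescent anti-GST, and scans were normalised with masliner. Each ungapped eight-base word, pooled with its reverse complement, received an E-score (modified Wilcoxon-Mann-Whitney statistic) from the Universal PBM Analysis Suite.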

| Sequence | PBM E-score |
| --- | --- |
| CGTAGTCC | -0.266 |
| CCCTTATA | 0.0599 |
| AAGGAAAG | -0.00545 |
| AACGGGGC | 0.108 |
| CTCAAGTC | -0.196 |
| ATTTTCTC | 0.0514 |
| AGTAGCCA | -0.261 |
| AGATTCGA | -0.0633 |
| AAAGACCT | -0.03 |
| GATTGATA | 0.213 |
| CTGATAGA | 0.0598 |
| CATGCTGC | -0.128 |
| CTCATGCA | 0.0777 |
| TTATTAAA | 0.278 |
| GGCATGCC | 0.0373 |
| CTCTATCC | -0.115 |
| GGTTCTAC | -0.115 |
| CTTGCTCC | -0.183 |
| GTCGACTA | 0.189 |
| AATTCAAG | 0.0197 |
| ACTTGGGA | -0.175 |
| GCTCAAAA | -0.00649 |
| ATAAGATG | 0.213 |
| CATATGTC | -0.08 |
| ATACCACC | 0.149 |

| Sequence | PBM E-score |
| --- | --- |
| CATGCTAG | -0.0431 |
| GGCTCACC | -0.274 |
| TGCAACAA | 0.0117 |
| GTATTAGA | 0.234 |
| GCGGAGCC | -0.153 |
| TCAAACCA | 0.193 |
| ACCAGCAG | -0.195 |
| CACTCTAC | 0.0729 |
| CGGTGGTC | -0.098 |
| ACATTCAT | 0.147 |
| AGCCAGGA | -0.0826 |
| ATCGGGCA | -0.161 |
| GTAGACAC | 0.0248 |
| ACCGATGC | 0.0455 |
| CAAGAGCG | -0.00062 |
| ATGACTAA | 0.235 |
| CCTGGGGA | -0.302 |
| CGGTGTGA | 0.0609 |
| GAATGCGC | 0.124 |
| ATATGATC | 0.258 |
| AGAGCGGC | 0.00132 |
| ATTGCCAA | 0.0338 |
| GTGAAGCA | 0.00998 |
| GCCAAAGA | -0.109 |
| ACAGGCAA | 0.0402 |

| Sequence | PBM E-score |
| --- | --- |
| GACGGGTA | -0.138 |
| CATAGGGC | -0.175 |
| CATTCAGG | -0.164 |
| AATGTGGA | 0.0413 |
| ACCGTATG | -0.00304 |
| ACCAAGAT | 0.146 |
| AGTGAAGG | 0.0101 |
| CCACCAAA | -0.0215 |
| CCATCTAG | -0.126 |
| CGTTTACA | -0.0821 |
| GATACTGA | 0.124 |
| GCTGCTAC | -0.221 |
| GGGCCGAC | -0.23 |
| CCCATTAC | 0.137 |
| ACTCGGCG | -0.141 |
| CTTGCTAA | -0.148 |
| CCGGGGCA | -0.193 |
| AAAACCCT | 0.0401 |
| CCATTCAC | -0.00131 |
| AGCCCCAT | -0.0677 |
| CCATGGGA | 0.0434 |
| CCTGGGTA | -0.277 |
| CATGAGAA | 0.104 |
| CTTCCGTC | -0.0172 |
| ACCAACCA | -0.0451 |

| Sequence | PBM E-score |
| --- | --- |
| CGTCGTTC | 0.151 |
| CAGGGACC | -0.251 |
| CATGCGAG | 0.0486 |
| AGCTTCAG | -0.115 |
| AAGAAAGG | -0.165 |
| AGAAAATG | -0.00112 |
| GCTGAGCC | -0.0662 |
| ACAGGGAT | 0.0409 |
| ATCGAAGC | 0.00395 |
| CACACCGA | -0.05 |
| GGTTGACA | -0.0682 |
| ACATAACT | 0.197 |
| CAGGTAAA | 0.216 |
| ACGCGAGA | 0.087 |
| GCAAACGA | 0.0468 |
| CTATCTTC | 0.157 |
| GAGCAAAC | 0.0584 |
| AGGACTAT | -0.0847 |
| GAAGCGGA | 0.0323 |
| CCCGGCGA | -0.0713 |
| CCCCTAAC | -0.13 |
| CATCACAG | -0.0436 |
| ATGACCAT | 0.11 |
| CACGAAGG | -0.169 |
| AACGACGT | 0.0511 |

| Sequence | PBM E-score |
| --- | --- |
| CTGCATGA | -0.106 |
| CCAACGCG | -0.086 |
| AACGCCAT | 0.075 |
| AGTATATG | 0.183 |
| CATTGACA | -0.104 |
| CCCTCGTA | -0.00454 |
| AGGGCGTG | -0.224 |
| CGCCCGGC | -0.149 |
| GGAACCGA | 0.00157 |
| CCAATGAA | -0.134 |
| CCCCCTAC | -0.394 |
| CGTGTATC | 0.0236 |
| ACCACTGA | -0.186 |
| ATATAGTC | 0.258 |
| GCTGAACC | -0.16 |
| AAGATTCC | 0.115 |
| GGAGTACC | -0.0274 |
| ATGAAATC | 0.179 |
| ACACCCGA | 0.0844 |
| CGAGAGAA | -0.0194 |
| CTCGTTTC | 0.00595 |
| CGAGGCAC | -0.317 |
| CCGTAATA | 0.203 |
| GGAATTAC | 0.223 |
| AATAGGAT | 0.231 |

| Sequence | PBM E-score |
| --- | --- |
| CGCTCTCA | -0.124 |
| TACGTTGA | 0.218 |
| AGAATCCT | -0.158 |
| TAGTGTCA | 0.107 |
| AGCTTCAA | -0.0385 |
| TCCCGGAA | 0.216 |
| ATTTTAAC | -0.0252 |
| ATTCACCC | 0.111 |
| AAGACAGC | -0.111 |
| GAAATCGA | 0.0763 |
| CCCTTCGA | -0.257 |
| AGAACTCC | -0.0874 |
| GAGGTTGC | -0.195 |
| GTGGGGTA | 0.181 |
| ACTCGTTG | -0.0803 |
| AACATGAA | 0.0944 |
| TGTTCGAA | -0.0689 |
| AAGCAATC | 0.165 |
| AAAGTAGC | -0.0578 |
| ACTCTGTA | -0.0694 |
| ATGACGGG | 0.0538 |
| ATTACATG | 0.297 |
| CATGGAAG | -0.0265 |
| AACCCCCT | -0.473 |
| CGTTATCA | 0.15 |

| Sequence | PBM E-score |
| --- | --- |
| CTTATGAA | 0.0936 |
| TACAGTAA | 0.14 |
| AAGTTTTA | 0.165 |
| GTTCGAAA | -0.00462 |
| ATAGGTTC | 0.00593 |
| CCGCCATA | 0.0972 |
| CATCTCCG | 0.2 |
| AAGCCACA | -0.104 |
| CCCACTCC | -0.0523 |
| ATTCTTCC | 0.0301 |
| GCACACCA | -0.117 |
| CCCGGAGC | 0.00401 |
| GTCCATTA | 0.109 |
| TCGCGTCA | 0.102 |
| ATGTCTGC | -0.125 |
| AACGACCC | -0.0429 |
| GCACTATA | 0.0376 |
| CGCGATAA | 0.0927 |
| CAGATGGA | 0.234 |
| ACTACACA | 0.217 |
| ATGAAAAC | 0.135 |
| TGACAGAA | 0.0176 |
| AACAGGTC | -0.194 |
| CCGATAAA | 0.0523 |
| CACAGACA | -0.0152 |

| Sequence | PBM E-score |
| --- | --- |
| GGGTGATA | 0.00865 |
| CTCCTAAG | -0.173 |
| AGGGGCCG | -0.279 |
| ATGCATTG | 0.0335 |
| AAACTGGG | -0.0298 |
| CTATGCCC | -0.127 |
| ATTACGCA | 0.25 |
| ATTCCATG | 0.156 |
| CGAGGTCC | -0.175 |
| AAACCTCT | 0.0865 |
| GACCATCC | -0.11 |
| GATATACA | 0.138 |
| ACTCCGTG | -0.0119 |
| AGAGTCCG | -0.195 |
| ACCTTGTC | -0.156 |
| AGAGTTCC | -0.156 |
| CCTTGGTA | -0.0422 |
| AGCACTAA | 0.057 |
| AGGTAGGC | -0.0632 |
| CACGTCGA | -0.0392 |
| CATTGAGG | -0.0654 |
| CGGGATTC | 0.0661 |
| AACGCTAA | -0.114 |
| CTTTGGTC | 0.0474 |
| AGTTCTCC | -0.165 |

| Sequence | PBM E-score |
| --- | --- |
| GCTTGTAA | 0.0106 |
| CTAAATCC | 0.049 |
| ATCCATGG | -0.0762 |
| CGTATATA | 0.231 |
| CTCACAAG | -0.0133 |
| GAGATCAA | 0.157 |
| AAGCTGAT | 0.209 |
| CCCCGAAG | -0.0267 |
| CCTATAGA | -0.12 |
| ATGTTTCA | 0.0393 |
| GAAGGGAC | -0.213 |
| AAGACCAT | 0.0599 |
| CCGGGACC | -0.0381 |
| GGATCAAA | 0.0839 |
| AAAGACGA | 0.036 |
| GGATCGCC | -0.16 |
| AGGGAGAG | -0.136 |
| GACAGGTA | -0.00656 |
| CACAGCAC | -0.0377 |

Looked up above.
For PBM E-score, CCGGGACC is entered as -0.0381
For PBM E-score, CACAGCAC is entered as -0.0377
For PBM E-score, ATGTTTCA is entered as 0.0393
For PBM E-score, GGATCGCC is entered as -0.16
For PBM E-score, GCTTGTAA is entered as 0.0106
For PBM E-score, ATCCATGG is entered as -0.0762

A different layout for some results above:
Sequence | PBM E-score
CCGTAATA | 0.203
GGAATTAC | 0.223
AATAGGAT | 0.231
CGCTCTCA | -0.124
TACGTTGA | 0.218
AGAATCCT | -0.158
